Measured values as given in PubChem BioAssay AID2685 (National Center for Advancing Translational Sciences (NCATS), 2010).
The list shows a part of the results. Shown are side measurements of this screen, not its main read-out; they come without a call. Compounds called inactive in the main read-out are mostly missing here. Words in brackets tell the shape of the fitted curve; partial curves, single points and poor fits give uncertain potencies.

Test: qHTS Assay for Lipid Storage Modulators in Drosophila S3 Cells;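 for cell number change: cells counted by Cell Tracker Red CMTPX staining in the red channel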
Conditions: BODIPY lipid droplet fluorescence, 18-24 h; for cell number change: measured here: cell count max response, cells fed with added oleic acid
Method in brief: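 Drosophila S3 cells loaded with oleic acid (400 uM, as added) and compounds at several concentrations; lipid droplets imaged by 488-nm laser-scanning cytometry, 500–530 nm intensity and object ratio to cell channel. Percent activity normalized to 20 uM Triacsin C.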

[1] = measured here: cell number channel AC50, cells fed with added oleic acid
[2] = measured here: lipid fluorescence (Fed channel) AC50, cells fed with added oleic acid

Compound | cell number change | AC50 [1] | AC50 [2]
CC(C)=CCCC1=CCC(/C=N/NC(N)=O)C(C)C1 (stereo not drawn) | -4.83% | – | –
CCCCCCCCNC(=O)/C(C#N)=C/c1ccc2c(c1)OCCO2 | 3.79% | 0.259 µM [rising, full curve, poor fit] | 18.4 µM [rising, single point]
CN(C(=O)COC(=O)CNC(=O)C12CC3CC(CC(C3)C1)C2)c1ccccc1 | 23.3% | 3.26 µM [rising, full curve, poor fit] | –
COc1ccc(NS(=O)(=O)c2ccc3c(c2)NC(=O)CC(=O)N3)cc1OC | 19.3% | – | –
CCOC(=O)C1=C(C)NC(C)=C(C(=O)OCC)C1c1cn(-c2ccccc2)nc1-c1ccco1 | 22.5% | – | 0.731 µM [rising, full curve]
O=C(NCCc1ccccc1)c1ccc2[nH]c(=O)c(=O)[nH]c2c1 | 3.98% | – | 6.51 µM [rising, partial curve, poor fit]
CCN(CC)c1ccc(NC(=O)COC(=O)Cc2ccsc2)cc1 | 24% | – | –
Cc1cn(C(=O)CN2C(=O)c3ccccc3C2=O)c(C)n1 | -0.944% | – | –
CCOC(=O)N1CCN(c2ccc(C(=O)CC)cc2F)CC1 | -13.9% | – | –
CN(C)CCCNc1cc(C(C)(C)C)nc2c(-c3ccccc3)cnn12 | -38.8% | 20.6 µM [falling, single point] | 29.1 µM [falling, single point]
Cc1cccc(C)c1NC(=O)c1ccc(CN2CCc3ccccc3C2)cc1 | -11.3% | 4.61 µM [rising, single point] | –
N#C/C(=C\c1c(N2CCCCC2)nc2ccccn2c1=O)C(=O)NCc1ccco1 | 83.3% | 16.4 µM [rising, single point] | –
O=C(Cn1cc(/C=N/O)c2ccccc21)N1CCOCC1 | 13.9% | – | 0.13 µM [falling, full curve, poor fit]
CC(C)(C)c1ccc(C(=O)NCc2nnc(SCC(=O)NC3CCCCC3)o2)cc1 | -28.7% | – | –
CN1CCN(c2ccc(C(CC(N)=O)NC(=O)c3ccccc3)cc2[N+](=O)[O-])CC1 (stereo not drawn) | -12.3% | – | –
O=C(c1cc(-c2ccc(Cl)cc2)on1)N1CCN(c2ccc(F)cc2)CC1 | – | – | 29.1 µM [falling, single point]
CCCCCCCNC(=O)c1cc(-c2ccncc2)nc2ccccc12 | 3.55% | – | 6.51 µM [rising, partial curve, poor fit]
CCC1(c2ccccc2)NC(=O)N(CC(=O)NCc2ccc(C)cc2)C1=O (stereo not drawn) | 40.1% | 0.291 µM [rising, full curve] | 29.1 µM [rising, single point]
Cc1ccc(OCc2cc(C(=O)N(C)CCc3ccccn3)no2)cn1 | -9.24% | – | 1.64 µM [falling, single point]
COCCOC(=O)c1c(C)oc2ccc(NS(=O)(=O)c3ccccc3)cc12 | 5.14% | – | 1.64 µM [rising, partial curve]
CCOC(=O)C1CCCN(C(=O)/C(=C/c2ccco2)NC(=O)c2ccccc2)C1 (stereo not drawn) | -9.24% | – | –

Copied from the list.
For cell number change, O=C(Cn1cc(/C=N/O)c2ccccc21)N1CCOCC1 has the entry 13.9%
For cell number change, CC(C)=CCCC1=CCC(/C=N/NC(N)=O)C(C)C1 (stereo not drawn) has the entry -4.83%

The results go on:

Compound | cell number change | AC50 [1] | AC50 [2]
COc1cccc(/C=N/NC(=O)CN(C2=NS(=O)(=O)c3ccccc32)c2ccccc2)c1 | -8.02% | 0.0058 µM [falling, full curve, poor fit] | 0.00517 µM [falling, full curve, poor fit]
COc1ccc(N2CCN(C(=O)c3cc4c(-c5cccc(OC)c5)nn(C)c4s3)CC2)cc1 | -9.87% | – | 0.411 µM [rising, single point]
C=CCSc1nc2[nH]ncc2c(=O)[nH]1 | 20.8% | – | –
CC1=CCC2C(=O)N(c3cccc(C(=O)N(C)C4CCCCC4)c3)C(=O)C2C1 (stereo not drawn) | 2.44% | – | 1.3 µM [rising, full curve]
CCOc1ccc(NS(=O)(=O)c2ccc(C(=O)NCC(C)(C)N3CCOCC3)cc2)cc1 | -1.99% | – | 29.1 µM [rising, single point]
CN(CC(=O)Nc1ccccc1Cl)C1CCCCC1 | -33.6% | 23.1 µM [falling, single point] | –
CCOC(=O)c1ccc(NC(=O)Cn2nnc3ccccc32)cc1 | -22% | – | –
COc1ccc(Cl)cc1C(=O)NCc1cn(C)nc1C | – | – | 0.0517 µM [rising, full curve, poor fit]
Cc1ccccc1OCC(=O)OC(C(=O)c1ccccc1)c1ccccc1 (stereo not drawn) | -23.1% | – | 0.058 µM [falling, full curve, poor fit]
Cc1[nH]c2ccc(-c3n[nH]c(=S)n3-c3ccc(Br)cc3)cc2c1C | -28.4% | – | 20.6 µM [falling, single point]
O=C(Nc1cccc(C(F)(F)F)c1)c1cccc(NS(=O)(=O)c2ccc(O)c(C(=O)O)c2)c1 | 6.73% | – | –
Cc1cc(F)ccc1NCC(=O)Nc1ccccc1Br | -33.7% | 32.6 µM [falling, single point] | 20.6 µM [falling, partial curve, poor fit]
Cc1c(C2CC(=O)N(c3ccccc3)C2=O)[nH]n(-c2ccccc2)c1=O (stereo not drawn) | -8.37% | – | 29.1 µM [rising, single point]
COC(=O)c1sccc1NN1C(=O)c2ccccc2C1=O | 19.8% | 4.11 µM [falling, single point] | 3.66 µM [falling, single point]
COCCCNC(=O)CSc1nc2c(sc(=S)n2-c2cc(Cl)ccc2OC)c(=O)[nH]1 | 5.41% | – | 29.1 µM [rising, single point]
CCOc1ccc(Oc2cc(NC(=O)c3ccco3)cc([N+](=O)[O-])c2)cc1 | 5.49% | – | 16.4 µM [falling, partial curve]
Cc1nc2ccc([N+](=O)[O-])cc2c(=O)n1Cc1ccccc1Br | -16.3% | – | 29.1 µM [falling, single point]
CCOC(=O)C1(S(=O)(=O)c2ccccc2)CCN(Cc2ccccc2)CC1 | -21.3% | – | –
Cc1ccc(/C=N/NC(=O)c2cc(C)oc2C)o1 | – | – | 0.116 µM [falling, full curve, poor fit]
Cc1c(-c2n[nH]c(=S)n2-c2ccc(Br)cc2)nnn1-c1ccc(Cl)cc1 | -50.7% | 20.6 µM [falling, single point] | 20.6 µM [falling, single point]
Cc1ccc(S(=O)(=O)N2CCN=C2SC(C)c2ccccc2)cc1 (stereo not drawn) | -6.36% | – | –

Two compounds picked at random from the list so far, as already listed:
Compound | cell number change | AC50 [1] | AC50 [2]
O=C(Nc1cccc(C(F)(F)F)c1)c1cccc(NS(=O)(=O)c2ccc(O)c(C(=O)O)c2)c1 | 6.73% | – | –
CN(CC(=O)Nc1ccccc1Cl)C1CCCCC1 | -33.6% | 23.1 µM [falling, single point] | –

The list continues:

Compound | cell number change | AC50 [1] | AC50 [2]
Cc1ccc(S(=O)(=O)N2[C@@H](c3cccc(Cl)c3)C(C(=O)O)=CC[C@H]2c2cccs2)cc1 | -5.48% | – | 0.13 µM [rising, full curve, poor fit]
COc1ccc(S(=O)(=O)NNc2nc(C)cc(C)n2)cc1[N+](=O)[O-] | -31.8% | 18.4 µM [falling, single point] | 14.6 µM [falling, partial curve]
COC(=O)c1[nH]c2cccc(OC)c2c1NC(=O)CN(C)CC1OCCO1 | 33% | 4.61 µM [rising, full curve, poor fit] | 4.61 µM [rising, full curve]
O=C(C[n+]1ccc(/C=N/O)cc1)NC(=O)Nc1ccccc1 | -26.9% | – | 1.03 µM [rising, partial curve]
Cc1nc(NC(=O)C2CC2)sc1C(=O)N(C)C | -8.11% | – | 0.366 µM [rising, partial curve, poor fit]
Cc1occc1-c1nnc(SCC(=O)Nc2nccs2)n1Cc1ccco1 | -2.11% | – | –
CCOC(=O)C1CCN(CC(O)COc2ccc(S(=O)(=O)N3CCCC3)cc2[N+](=O)[O-])CC1 (stereo not drawn) | 52.3% | 2.91 µM [rising, full curve] | –
CC(=O)Nc1ccccc1C(=O)C(=O)Nc1ccc(C(=O)NCC2CCCO2)cc1 (stereo not drawn) | -4.15% | – | –
Fc1ccc2nc(Nc3nc4cc5c(cc4s3)OCCO5)sc2c1 | 62.2% | 13 µM [rising, partial curve] | 9.2 µM [rising, partial curve]
COC(=O)c1ccccc1NC(=O)NCc1ccccc1 | 36.5% | 0.366 µM [rising, full curve] | –
CCOC(=O)N1CCN(C(=O)Cn2nc(C)n3nc(-c4ccc(OC)cc4)cc3c2=O)CC1 | -10.8% | – | 7.31 µM [rising, single point]
Cc1cc(C(=O)N2CCN(S(=O)(=O)c3ccccc3F)CC2)c(C)o1 | – | – | 0.146 µM [falling, single point]
COc1ccc(S(=O)(=O)N(C(C)=O)c2ccc3oc(=O)sc3c2)cc1 | 1.39% | – | 1.84 µM [falling, partial curve, poor fit]
C=CCN1c2ccccc2[C@]23C[C@@H](C(=O)OC)N(C(=O)C4CCC4)C2=NC(C(=O)OC)=C(C(=O)OC)[C@H]13 | 8.65% | – | 0.0411 µM [rising, full curve, poor fit]
CCN(CC)S(=O)(=O)c1ccc(C(=O)OCCNC(=O)c2cccnc2)cc1 | 0.533% | – | 0.326 µM [falling, full curve, poor fit]
O=C1/C(=C\c2cc(Cl)c(O)c(Cl)c2)SC(=S)N1Cc1ccccc1 | -98.2% | 1.84 µM [falling, full curve] | 0.326 µM [falling, full curve]
CCCN1Cc2cccc(C(=O)N3CCN(c4cc(Cl)ccc4C)CC3)c2C1=O | -77.8% | 29.1 µM [falling, single point] | –
O=C(CN1C2CCC1CC(NC(=O)Nc1ccccc1)C2)NCc1ccco1 (stereo not drawn) | -0.523% | – | 4.11 µM [rising, partial curve]
O=S(=O)(NCc1ccc2c(c1)OCO2)c1cccc(F)c1 | -4.91% | – | –
